No constants are given. Whether binding was seen depends on the method and setting. Binding seen in cells or lysates may run through a third protein. Some results given as binding are weak or reduced against the parent protein; the word gives no strength.
Biological target: Leucine zipper downregulated in cancer-1 (LDOC1) (human (endogenous in A549 and PC9)) (UniProt O95751)
Test: co-IP; endogenous proteins; A549 and PC9 cells serum-starved overnight, then EGF (10 nM) for 30 min; lysates in Pierce IP Lysis Buffer incubated with antibodies against LDOC1, AP1M1 or AP2M1 at 4 °C overnight, protein A-magnetic beads; Western blot

The chains behind the UniProt entries cited, without tags or fusion partners.
UniProt O95751: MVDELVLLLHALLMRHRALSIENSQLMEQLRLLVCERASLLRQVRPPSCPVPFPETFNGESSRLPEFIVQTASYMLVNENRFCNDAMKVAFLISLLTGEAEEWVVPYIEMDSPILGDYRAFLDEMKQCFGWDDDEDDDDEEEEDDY
UniProt Q96CW1: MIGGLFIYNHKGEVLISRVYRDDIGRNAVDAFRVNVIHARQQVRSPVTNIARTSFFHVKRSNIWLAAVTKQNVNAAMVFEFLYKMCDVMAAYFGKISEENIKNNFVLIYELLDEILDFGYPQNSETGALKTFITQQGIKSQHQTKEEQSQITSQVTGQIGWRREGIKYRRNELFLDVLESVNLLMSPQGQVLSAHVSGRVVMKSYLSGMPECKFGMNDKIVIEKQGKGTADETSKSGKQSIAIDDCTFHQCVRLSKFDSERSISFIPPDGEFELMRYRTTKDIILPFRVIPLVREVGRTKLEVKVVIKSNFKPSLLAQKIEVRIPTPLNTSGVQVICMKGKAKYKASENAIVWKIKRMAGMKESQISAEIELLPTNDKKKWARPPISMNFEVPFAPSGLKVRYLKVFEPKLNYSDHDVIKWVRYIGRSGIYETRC

binding	Molecule
binds	AP-2 complex medium-chain μ2 (AP2M1) (from UniProt Q96CW1 1-435)
binds	AP-1 complex medium-chain μ1A (AP1M1) (protein, UniProt Q9BXS5 1-423) MSASAVYVLDLKGKVLICRNYRGDVDMSEVEHFMPILMEKEEEGMLSPILAHGGVRFMWIKHNNLYLVATSKKNACVSLVFSFLYKVVQVFSEYFKELEEESIRDNFVIIYELLDELMDFGYPQTTDSKILQEYITQEGHKLETGAPRPPATVTNAVSWRSEGIKYRKNEVFLDVIESVNLLVSANGNVLRSEIVGSIKMRVFLSGMPELRLGLNDKVLFDNTGRGKSKSVELEDVKFHQCVRLSRFENDRTISFIPPDGEFELMSYRLNTHVKPLIWIESVIEKHSHSRIEYMIKAKSQFKRRSTANNVEIHIPVPNDADSPKFKTTVGSVKWVPENSEIVWSIKSFPGGKEYLMRAHFGLPSVEAEDKEGKPPISVKFEIPYFTTSGIQVRYLKIIEKSGYQALPWVRYITQNGDYQLRTQ
